Results as given in publication PMC2982846.
No constants are given. Whether binding was seen depends on the method and setting. In cells and extracts the contact can be indirect. Some entries that bind do so weakly or less than the wild type.

Molecular target: T1, Fe65 (mouse (endogenous in mouse brain)) (UniProt Q9QXJ1)
T1 sequence: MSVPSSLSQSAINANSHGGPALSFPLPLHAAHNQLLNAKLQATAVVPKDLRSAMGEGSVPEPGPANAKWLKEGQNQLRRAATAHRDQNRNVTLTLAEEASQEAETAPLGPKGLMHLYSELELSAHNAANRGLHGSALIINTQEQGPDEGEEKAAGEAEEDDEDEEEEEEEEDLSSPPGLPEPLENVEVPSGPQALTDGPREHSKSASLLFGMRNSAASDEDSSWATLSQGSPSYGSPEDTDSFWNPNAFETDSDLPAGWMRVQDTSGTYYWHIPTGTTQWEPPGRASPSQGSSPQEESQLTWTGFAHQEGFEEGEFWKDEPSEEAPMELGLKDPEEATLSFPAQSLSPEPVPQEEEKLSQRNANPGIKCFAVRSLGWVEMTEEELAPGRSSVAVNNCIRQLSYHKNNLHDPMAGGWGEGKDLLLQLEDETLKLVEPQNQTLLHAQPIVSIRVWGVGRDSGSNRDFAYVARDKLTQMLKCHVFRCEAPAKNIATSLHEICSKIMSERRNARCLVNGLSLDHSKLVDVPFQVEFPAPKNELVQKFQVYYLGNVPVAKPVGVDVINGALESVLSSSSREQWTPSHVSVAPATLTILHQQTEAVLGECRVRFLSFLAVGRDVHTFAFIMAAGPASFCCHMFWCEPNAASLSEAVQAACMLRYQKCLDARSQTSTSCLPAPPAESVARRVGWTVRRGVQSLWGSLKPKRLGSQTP
Test: co-IP; IP with anti-Fe65 (I12) from membrane enriched mouse brain fraction (500 ug membrane protein; IP buffer 20 mM Hepes pH 8.0, 10% glycerol, 137 mM NaCl, 0.5% Triton-X-100, 2 mM EDTA; protein A/G, overnight), blot for full length APP (22C11); APP^wt/wt and APP^YG/YG mice

Row | Substance | binding
1 | Aβ-precursor protein (APP), wild type, from APP^wt/wt mouse brain (from UniProt P12023-2 18-695) | binds
2 | APP Y682G, from APP^YG/YG knock-in mouse brain (from UniProt P12023-2 18-695) | no binding
